Assay results taken from the supplement of paper PMC3334620.
The full ranking holds about 33,000 sequences; the median of “E-score (-0.5 to 0.5)” is about -0.015, and the highest 2% start at about 0.3. The list shows a part of the results.

Each sequence was assayed against T1, Abf1 (UniProt P14164) (assay: PBM E-score (8-mer binding enrichment) (E-score (-0.5 to 0.5)); higher = stronger / more preferred TF binding). Conditions: protein concentration: 200 nM; construct: GST-full length.
T1 sequence: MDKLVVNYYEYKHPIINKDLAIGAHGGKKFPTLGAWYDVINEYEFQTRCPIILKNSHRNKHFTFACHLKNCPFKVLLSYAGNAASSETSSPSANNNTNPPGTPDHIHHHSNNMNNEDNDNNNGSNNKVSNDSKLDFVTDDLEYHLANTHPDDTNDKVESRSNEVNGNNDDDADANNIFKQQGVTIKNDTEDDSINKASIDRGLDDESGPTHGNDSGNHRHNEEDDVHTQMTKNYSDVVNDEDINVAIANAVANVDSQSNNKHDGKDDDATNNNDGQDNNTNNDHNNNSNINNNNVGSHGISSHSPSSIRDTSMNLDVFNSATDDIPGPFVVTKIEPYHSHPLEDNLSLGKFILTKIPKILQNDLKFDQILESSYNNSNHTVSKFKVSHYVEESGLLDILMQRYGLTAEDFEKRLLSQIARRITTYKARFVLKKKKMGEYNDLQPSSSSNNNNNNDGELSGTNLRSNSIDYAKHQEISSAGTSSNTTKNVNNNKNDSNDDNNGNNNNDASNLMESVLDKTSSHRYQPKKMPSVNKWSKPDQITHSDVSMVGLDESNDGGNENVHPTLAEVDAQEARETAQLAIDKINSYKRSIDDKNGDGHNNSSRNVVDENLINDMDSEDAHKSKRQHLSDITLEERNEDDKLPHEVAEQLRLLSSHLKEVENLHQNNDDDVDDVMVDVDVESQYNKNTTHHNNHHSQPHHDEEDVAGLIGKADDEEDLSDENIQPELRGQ
Outline: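 Masliner-normalised scans of fluorescent anti-GST signal were the basis for scoring. That signal came from GST-tagged yeast transcription factors applied at about 100-200 nM to double-stranded universal all-10-mer Agilent arrays on fresh or once-stripped slides. Each ungapped eight-base word, pooled with its reverse complement, received an E-score from the Universal PBM Analysis Suite.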

Sequence	PBM E-score
CTTCTAAA	0.116
TAGACTGA	-0.0649
ACGCTGAG	-0.0124
ACTCACCA	-0.058
TAATGGAA	0.0705
CGAATCAC	0.246
AAAATACC	0.114
AAGACCCC	-0.00909
AGCAAGCT	-0.315
AATCAACC	-0.0117
AGAAGTGC	-0.00824
AAGGAACC	-0.053
AAAAGTAT	0.159
GTGTTCTA	0.00768
ACGGCGTA	0.287
ATTTGAGA	0.0567
AACCTCGA	-0.0703
CTAAGAGC	-0.3
CCTTCATA	0.0639
GCCCCGCC	-0.188
CGTCGTGA	0.351
ACTAACGA	0.231

Sequence	PBM E-score
ACCTTTGG	-0.236
GAGTTAGC	0.0721
GTGCGCAA	0.0394
AGGGGACT	-0.0774
CGTTTCGC	-0.00566
GCAACTAA	0.152
CGAACGCG	0.162
TCCCTCGA	-0.116
GTCGTCTA	0.287
CAAGAAGC	0.0432
AGGCCTCA	-0.116
AGTAAACA	0.0317
CAACGGAG	-0.039
CTTACAGC	0.00998
CCACTCAG	-0.199
CACCCGGA	-0.0476
CCCCGGAC	-0.105
GGAGGGAC	-0.178
CAGGACTG	-0.0757
CTTACTAC	0.148
ATCGCCCC	-0.113
CGATAGAC	0.144

Sequence	PBM E-score
ATTTTTGG	-0.00624
ACTAGTGC	0.104
CACACCCA	0.08
ACACTAAC	0.0344
GTACTAAA	0.226
CCTCCTAC	-0.28
CCGACGTA	0.0955
GTCTCCAA	0.00955
CTCTGTAC	0.099
ATCAGAAT	0.0679
CTACGTTC	0.017
ACGCACCC	-0.178
AGCAATCA	-0.0101
AGCCCGCC	-0.174
GAACGCTC	-0.0341
ATATGACC	-0.0352
CTTCATGA	0.13
CAGCATGG	-0.147
GAAATACC	0.0952
GAAGCCCC	-0.254
ATAGGAAT	-0.0297
CAGCGAGC	0.185

Sequence	PBM E-score
AGGAGAGG	-0.224
AGGCAGGG	-0.248
GGAGAAGA	-0.209
TCCCCTCA	-0.0459
AAGTCCCT	-0.0859
GCGTTTAC	-0.132
CGCCGTAA	0.0647
CTTTGCTA	-0.00827
CGCGTGCC	0.0605
CAGAAGAC	0.121
AGGTCCAG	0.0361
TAGCCCCA	-0.208
ACCATATG	-0.104
CTGCTCGA	-0.263
AAACTCGA	-0.0506
ACACATGG	-0.102
CCCCCTCC	-0.37
GTGAGGCA	0.122
CTAAGGAA	-0.0229
ATGTGCCC	-0.0158
GAGAACGC	-0.0847
CCTGAGTC	-0.0814

Given comma-delimited: part of the list above.
Sequence,PBM E-score
AAAATACC,0.114
CGAACGCG,0.162

Further results:

Sequence	PBM E-score
ACCATGTA	0.0521
ATTTGGTG	0.0293
ATCACCGG	0.101
ATTCCGTA	0.166
CTCGCCAA	-0.137
CCGCATAG	-0.026
GCTTAAAC	-0.189
AAACCATT	-0.0604
GTAATGAA	0.0369
AGGAGCAG	-0.293
CATTACTC	0.00345
ATGCTGTC	0.0728
ATGCGTGA	0.177
AACCAAGC	-0.204
CCGCCGGA	-0.07
GCTCACGA	0.125
GATTGTCC	0.179
ACAATATC	0.265
CGGTCGGA	0.0636
CTATGGTA	0.0305
ACAGTTAC	0.0978

In another format: entries from further up
Sequence,PBM E-score
GCTCACGA,0.125
GATTGTCC,0.179
ACAATATC,0.265
CGGTCGGA,0.0636
CTATGGTA,0.0305
